No constants are given. Whether binding was seen depends on the method and setting. Binding seen in cells or lysates may run through a third protein. Some binding calls cover weakened binding; strength is not graded here. Sequences can lack the tags named with a protein.
Target: Flag-tagged progranulin (PGRN) (human) (UniProt P28799)
Experiment: co-IP; Myc-tagged PLD3 and Flag-tagged PGRN coexpressed in HEK293 cells; protein extract immunoprecipitated with anti-Flag M2 affinity gel then western blot with anti-Myc, or with anti-Myc agarose then western blot with anti-Flag; normal IgG as control

By UniProt entry, the sequences of proteins in these tests, tags left out. Residues count along the entry.
UniProt P28799, residues 18-593: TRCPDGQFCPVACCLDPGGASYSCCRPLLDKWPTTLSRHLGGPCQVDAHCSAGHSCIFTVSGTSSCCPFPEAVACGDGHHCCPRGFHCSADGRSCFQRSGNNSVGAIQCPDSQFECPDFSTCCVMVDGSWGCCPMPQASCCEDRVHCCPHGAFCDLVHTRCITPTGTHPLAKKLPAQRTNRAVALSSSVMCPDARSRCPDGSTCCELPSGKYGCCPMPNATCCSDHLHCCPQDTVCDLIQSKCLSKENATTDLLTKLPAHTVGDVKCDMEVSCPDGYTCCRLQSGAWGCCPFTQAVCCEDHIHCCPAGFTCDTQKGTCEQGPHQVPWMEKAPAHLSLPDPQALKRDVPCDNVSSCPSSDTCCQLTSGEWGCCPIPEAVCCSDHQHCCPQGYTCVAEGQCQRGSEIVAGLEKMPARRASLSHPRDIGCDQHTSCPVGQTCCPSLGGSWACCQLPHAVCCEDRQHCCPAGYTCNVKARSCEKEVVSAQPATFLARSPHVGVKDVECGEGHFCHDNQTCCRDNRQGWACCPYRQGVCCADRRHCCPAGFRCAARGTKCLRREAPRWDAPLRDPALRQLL

B1: Myc-tagged phospholipase D3 (PLD3) (protein, UniProt Q8IV08 1-490)
chain: MKPKLMYQELKVPAEEPANELPMNEIEAWKAAEKKARWVLLVLILAVVGFGALMTQLFLWEYGDLHLFGPNQRPAPCYDPCEAVLVESIPEGLDFPNASTGNPSTSQAWLGLLAGAHSSLDIASFYWTLTNNDTHTQEPSAQQGEEVLRQLQTLAPKGVNVRIAVSKPSGPQPQADLQALLQSGAQVRMVDMQKLTHGVLHTKFWVVDQTHFYLGSANMDWRSLTQVKELGVVMYNCSCLARDLTKIFEAYWFLGQAGSSIPSTWPRFYDTRYNQETPMEICLNGTPALAYLASAPPPLCPSGRTPDLKALLNVVDNARSFIYVAVMNYLPTLEFSHPHRFWPAIDDGLRRATYERGVKVRLLISCWGHSEPSMRAFLLSLAALRDNHTHSDIQVKLFVVPADEAQARIPYARVNHNKYMVTERATYIGTSNWSGNYFTETAGTSLLVTQNGRGGLRSQLEAIFLRDWDSPYSHDLDTSADSVGNACRLL
binding: binds

Source: paper PMC4255636
